Test results from patent publication US20140141023A1 (PIERRE FABRE MEDICAMENT, published 2014).
No constants are given. Whether binding was seen depends on the method and setting. Some binding calls cover weakened binding; strength is not graded here.

Chains of the proteins cited; added tags and fusions are not shown. Lines headed by an entry give the natural chain unless they say otherwise; changes in a name come on top. A line that says so, or that is headed by a name, gives the form on record, which may keep a tag or linker.
recombinant human Axl-Fc (R and D systems, cat N° 154AL/CF) (P30530, form named): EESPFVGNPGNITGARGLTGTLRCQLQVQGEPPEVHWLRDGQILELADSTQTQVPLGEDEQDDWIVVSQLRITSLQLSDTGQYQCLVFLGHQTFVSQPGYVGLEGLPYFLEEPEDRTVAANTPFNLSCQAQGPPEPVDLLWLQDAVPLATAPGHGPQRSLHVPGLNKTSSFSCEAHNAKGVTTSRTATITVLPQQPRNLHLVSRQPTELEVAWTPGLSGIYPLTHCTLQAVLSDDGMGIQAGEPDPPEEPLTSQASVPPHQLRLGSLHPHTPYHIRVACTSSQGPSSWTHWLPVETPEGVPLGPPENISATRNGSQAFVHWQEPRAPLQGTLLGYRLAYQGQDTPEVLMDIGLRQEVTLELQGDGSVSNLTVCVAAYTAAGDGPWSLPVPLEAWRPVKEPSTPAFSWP

How the values were obtained:
[1] = target: recombinant human Axl-Fc (R and D systems, cat N° 154AL/CF) (human) (UniProt P30530); assay: ELISA on coated rhAxl-Fc
[2] = target: recombinant human Axl-Fc (R and D systems, cat N° 154AL/CF) (human) (UniProt P30530); assay: competition ELISA: rhAxl-Fc pre-incubated with the antibody, then loaded on coated rhGas6; bound rhAxl-Fc detected with anti-human IgG-HRP
[3] = target: recombinant human Axl-Fc (R and D systems, cat N° 154AL/CF) (human) (UniProt P30530); assay: ELISA on coated rhAxl-Fc, detection with goat anti-mouse IgG-HRP and TMB

Measured: binding

B1: 1613F12 (antibody, V domains shown)
VH: EVHLQQSGAELVKPGASVKLSCTASGFNIRDTYIHWVKQRPEQGLEWIGRLDPANGHTKYGPNFQGRATMTSDTSSNTAYLQLSSLTSEDTAVYYCARGAYYYGSSGLFYFDYWGQGTTLSVSS
VL: DVQITQSPSYLATSPGETITINCRASKSISKYLAWYQEKPGKTNKLLIYSGSTLQSGVPSRFSGSGSGTDFTLTISSLEPEDFAMYFCQQHHEYPLTFGAGTELELK
notes: also called 1613F12 antibody; 1613F12 Mab
binds: all assays above
